# Values from PubChem BioAssay AID1671195 (Yale University, 2021)
# Assay: 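Regulators of LDL receptor activity judged by labelled LDL uptake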 (primary screen)
# Cells: human Huh7 hepatoma cells
# Reagents: siRNA pool against human genes, 18 nM
# Time to read-out: about 2 to 2.5 days of knockdown, then 8 h LDL uptake
# Challenge: DiI-labelled LDL at 30 µg/ml for 8 h, in lipoprotein-deficient serum medium
# Read-out: 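Per-cell DiI-LDL intensity by automated imaging; well means scaled to the plate median and given as a robust z-score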
# Scale: robust z-score: higher = more LDL uptake after knockdown
# Hit rule: 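Active when two or more replicates show a robust z-score above 2 or below -2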
# The whole screen tested about 22,000 reagents; this is a part drawn at random. Of all reagents, about 1,510 (6.9%) are marked active. 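Active includes knockdowns raising or lowering LDL uptake; positive z-scores mean more uptake, negative mean less.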 The numbers tell different reagents against one gene apart.
target,pool no.,"robust z-score, replicate 1","robust z-score, replicate 2","robust z-score, replicate 3",activity call
NARS1,1,1.2,1.6,2.02,inactive
CDK5RAP1,1,-0.584,1.41,0.322,inactive
P3H1,1,-0.284,-0.728,-0.521,inactive
ABHD12B,1,0.306,-0.542,0.0442,inactive
SRP19,1,-0.249,-0.117,0.316,inactive
SZT2,1,2.01,0.358,1.66,inactive
SZT2,2,-1.02,-0.364,-0.959,inactive
SCAMP3,1,-0.218,-0.326,-0.475,inactive
SUGT1P4-STRA6LP-CCDC180,1,2.18,-0.172,-0.567,inactive
LXN,1,-1.2,-1.16,-1.25,inactive
GAPDHP74,1,0.284,0.292,0.284,inactive
CHST15,1,1.63,0.248,-0.198,inactive
CASC15,1,0.484,0.908,0.913,inactive
ULBP3,1,-0.564,-1.16,-0.299,inactive
LRRC74BNL,1,-0.0646,-0.773,-0.331,inactive
NEGR1,1,-0.23,1.06,0.87,inactive
MAGI3,1,0.728,0.681,0.839,inactive
SART1,1,1.15,0.182,1.14,inactive
PTGES3P1,1,0.848,0.622,0.572,inactive
RPL7L1,1,0.407,0.333,0.616,inactive
SPATA9,1,-0.982,-0.618,-0.327,inactive
ENPP7,1,-0.621,-0.417,0.762,inactive
MYO6,1,0.394,0.686,0.624,inactive
MTRR,1,-0.426,-0.768,-0.927,inactive
UPK1A,1,-1.11,-1.9,-0.81,inactive
PTGDS,1,-0.684,-0.833,-1,inactive
CCL13,1,-0.237,0.14,-0.304,inactive
TPRG1L,1,0.425,-0.943,-0.048,inactive
BRD10,1,-1.06,-1.07,-0.804,inactive
DIO3,1,0.827,0.943,0.294,inactive
OR5B17,1,0.145,-0.622,-0.404,inactive
NDE1,1,0.661,0.417,1.38,inactive
TRIM66,1,1.37,-0.311,0.964,inactive
QTGAL,1,-1.17,0.233,-0.784,inactive
DENND3,1,0.708,0.545,0.608,inactive
LRRC23,1,0.908,-0.979,0.0731,inactive
MYO10,1,0.303,-0.241,-0.226,inactive
TMEM256,1,-1.37,-1.37,-1.29,inactive
HSD17B2,1,0.318,-0.552,0.401,inactive
LOC388065 (retired record),1,-0.301,0.13,-0.0736,inactive
EHBP1L1,1,0.379,0.254,0.551,inactive
GFOD1,1,1.04,1.48,0.74,inactive
GFOD1,2,-1.28,-1.05,-1.21,inactive
SAMHD1,1,-0.75,-0.279,-0.666,inactive
ERVV-1,1,-0.99,-0.651,-0.615,inactive
FAM180B,1,1.49,-1.2,-1.28,inactive
ABHD16B,1,-0.0869,0.308,-0.503,inactive
OR4A15,1,2.59,2.83,2.85,active
GDF9,1,-0.12,0.358,0.21,inactive
PANX1,1,-1.31,-0.53,-0.881,inactive
SPATA18,1,-0.205,-0.568,-1.23,inactive
SNAI3,1,-0.506,-0.625,-0.732,inactive
OPN5,1,-1.65,-1.84,-1.77,inactive
EVX1,1,1.25,1.38,2.2,inactive
IFITM3P7,1,1.05,1.17,0.877,inactive
AIF1L,1,0.8,0.604,-0.286,inactive
SDHB,1,-0.298,-0.616,-0.769,inactive
SLC7A1,1,-2.43,-2.34,-1.97,active
FAP,1,-0.947,-0.0605,-0.606,inactive
BASP1-AS1,1,-1.25,-0.723,-0.765,inactive
TTC12,1,-1.51,-1.56,-2.1,inactive
DYNC2LI1,1,-2.06,-1.84,-1.05,inactive
ARMCX6,1,-0.921,-0.938,0.0473,inactive
ULK3,1,-0.883,-0.739,-1.4,inactive
GNAT1,1,0.149,-0.043,0.28,inactive
RPL23AP87,1,-0.00223,-0.167,-0.272,inactive
DNPEP,1,0.0394,-0.244,-0.285,inactive
ZNF546,1,-0.952,-0.938,-0.817,inactive

8 entries from above in another layout.
TPRG1L
- robust z-score, replicate 1: 0.425
- robust z-score, replicate 2: -0.943
- robust z-score, replicate 3: -0.048
- activity call: inactive

BRD10
- robust z-score, replicate 1: -1.06
- robust z-score, replicate 2: -1.07
- robust z-score, replicate 3: -0.804
- activity call: inactive

DIO3
- robust z-score, replicate 1: 0.827
- robust z-score, replicate 2: 0.943
- robust z-score, replicate 3: 0.294
- activity call: inactive

OR5B17
- robust z-score, replicate 1: 0.145
- robust z-score, replicate 2: -0.622
- robust z-score, replicate 3: -0.404
- activity call: inactive

NDE1
- robust z-score, replicate 1: 0.661
- robust z-score, replicate 2: 0.417
- robust z-score, replicate 3: 1.38
- activity call: inactive

TRIM66
- robust z-score, replicate 1: 1.37
- robust z-score, replicate 2: -0.311
- robust z-score, replicate 3: 0.964
- activity call: inactive

QTGAL
- robust z-score, replicate 1: -1.17
- robust z-score, replicate 2: 0.233
- robust z-score, replicate 3: -0.784
- activity call: inactive

DENND3
- robust z-score, replicate 1: 0.708
- robust z-score, replicate 2: 0.545
- robust z-score, replicate 3: 0.608
- activity call: inactive
